Structures can show the parent of a compound that is named as a salt. The list shows a part of the results. Part of the spread comes from offsets between plates or batches.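 HEK293 lines stably express B-domain-deleted factor VIII fused to Gaussia luciferase, wild type or a misfolding-prone missense mutant. Scores equal triplicate-well mean luminescence minus DMSO mean, divided by DMSO standard deviation; scores of 2 or higher are hits. Low scores may indicate reduced secretion or worse cell viability.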
The molecules below were run on HEK293 p.N1941S BDD-FVIII-Gluc (assay: secreted FVIII-Gluc luciferase Z-score vs DMSO control; higher = more FVIII-Gluc secretion). Conditions: 5 µM; 24 h.

Secreted FVIII-Gluc luciferase Z-score, inactive:
CC(C)OC(=O)C(C)(C)Oc1ccc(C(=O)c2ccc(Cl)cc2)cc1 [Fenofibrate (Tricor, Trilipix)] -0.318
Nc1c(CC(=O)O)cccc1C(=O)c1ccccc1 [Amfenac Sodium (monohydrate)] -1.79
CC(=O)S[C@@H]1CC2=CC(=O)CC[C@]2(C)[C@H]2CC[C@@]3(C)[C@@H](CC[C@@]34CCC(=O)O4)[C@H]12 [Spironolactone] -1.58
CC(=O)O[C@]1(C(C)=O)CC[C@H]2[C@@H]3CCC4=CC(=O)CCC4=C3[C@@H](c3ccc(N(C)C)cc3)C[C@@]21C [Ulipristal] -0.878
CC1CNc2c(cccc2S(=O)(=O)N[C@@H](CCCNC(=N)N)C(=O)N2CC[C@@H](C)C[C@@H]2C(=O)O)C1 (stereo not given in full) [Argatroban] -0.63
CN1CCC(=C2c3ccccc3CCc3sccc32)CC1 [Pizotifen malate] -2.33
NC(=O)N/N=C/c1ccc([N+](=O)[O-])o1 [Nitrofurazone (Nitrofural)] 0.766
N#CC[C@H](C1CCCC1)n1cc(-c2ncnc3[nH]ccc23)cn1 0.0635
CCOC(=O)N1CCC(=C2c3ccc(Cl)cc3CCc3cccnc32)CC1 [Loratadine] -2.2
CN(C)CCCN1c2ccccc2Sc2ccc(Cl)cc21 [Chlorpromazine (Sonazine)] -1.86
CNC1CCCN(c2c(F)cc3c(=O)c(C(=O)O)cn(C4CC4)c3c2OC)C1 (stereo not given) [Balofloxacin] -1.47
Cc1cn([C@H]2C=C[C@@H](CO)O2)c(=O)[nH]c1=O [Stavudine] -1.97
N=C(N)N/N=C/c1c(Cl)cccc1Cl [Guanabenz acetate] -0.769
O=C(O)c1cc(/N=N/c2ccc(S(=O)(=O)Nc3ccccn3)cc2)ccc1O [Sulfasalazine (Azulfidine)] -0.324
Clc1ccc2nsnc2c1NC1=NCCN1 [Tizanidine HCl] -1.24
CN(CCOc1ccc(CC2SC(=O)NC2=O)cc1)c1ccccn1 (stereo not given) [Rosiglitazone HCl] 0.132
CCOc1ccc2nc(S(N)(=O)=O)sc2c1 [Ethoxzolamide] 1.06
CN(C)CCN(Cc1ccccc1)c1ccccn1 [Tripelennamine HCl] -0.374
CCC(C)(C)C(=O)O[C@H]1C[C@@H](C)C=C2C=C[C@H](C)[C@H](CC[C@@H]3C[C@@H](O)CC(=O)O3)[C@H]21 [Simvastatin (Zocor)] -0.89
CC(C(=O)O)c1ccc2c(c1)CC(=O)c1ccccc1S2 (stereo not given) [Zaltoprofen] -0.275
O=C(C[S+]([O-])Cc1ccco1)NC/C=C\COc1cc(CN2CCCCC2)ccn1 (stereo not given) [Lafutidine] -0.453
Nc1ncn([C@H]2C[C@H](O)[C@@H](CO)O2)c(=O)n1 [Decitabine] -1.28
Cc1cnc(NC(=O)C2=C(O)c3ccccc3S(=O)(=O)N2C)s1 [Meloxicam (Mobic)] -1.36
Oc1cc(O)c(Cl)cn1 [Gimeracil] -0.445
O=C(c1ccc(OCCN2CCCCC2)cc1)c1c(-c2ccc(O)cc2)sc2cc(O)ccc12 [Evista (Raloxifene Hydrochloride)] 1.52
CO[C@H]1C[C@@H]2CC[C@@H](C)[C@@](O)(O2)C(=O)C(=O)N2CCCC[C@H]2C(=O)O[C@H]([C@H](C)C[C@@H]2CC[C@@H](OC(=O)C(C)(CO)CO)[C@H](OC)C2)CC(=O)[C@H](C)/C=C(\C)[C@@H](O)[C@@H](OC)C(=O)[C@H](C)C[C@H](C)/C=C/C=C/C=C/1C [Temsirolimus (Torisel)] -7.31
CC(=O)Nc1ncc([N+](=O)[O-])s1 [Nithiamide] -0.787
C[C@@H]1CC(=O)NN=C1c1ccc(NN=C(C#N)C#N)cc1 [Levosimendan] -2.15
CC(=O)N1CCN(c2ccc(OCC3COC(Cn4ccnc4)(c4ccc(Cl)cc4Cl)O3)cc2)CC1 (stereo not given) [Ketoconazole] -2.33
O=C(O)c1ccc(-n2nc(-c3ccccc3O)nc2-c2ccccc2O)cc1 [Deferasirox (Exjade)] -3.97

Grouped by structure: the compounds so far containing an NH in an aromatic ring
Secreted FVIII-Gluc luciferase Z-score, inactive:
N#CC[C@H](C1CCCC1)n1cc(-c2ncnc3[nH]ccc23)cn1 0.0635
Cc1cn([C@H]2C=C[C@@H](CO)O2)c(=O)[nH]c1=O [Stavudine] -1.97

From the supplement of paper PMC12024529
